For this data set, the system named is primary AML samples. The experiment in a line: HLA class I ligandome analysis (W6/32 immunoaffinity purification, LC-MS/MS) of primary AML samples. More on the design: species or system human. The conditions noted are these: source protein (LiTAA); for Number of positive AMLs: AML patients (n=15); for rep. frequency: representation frequency in AML patients (n=15).

The text below walks through data of patent US10525115B2 (Immatics Biotechnologies GmbH, priority 2014, dated 2020).

B1: DGCR8 (protein, UniProt Q8WYQ5 1-773, looked up)
Microprocessor complex …: METDESPSPLPCGPAGEAVMESRARPFQALPREQSPPPPLQTSSGAEVMDVGSGGDGQSELPAEDPFNFYGASLLSKGSFSKGRLLIDPNCSGHSPRTARHAPAVRKFSPDLKLLKDVKISVSFTESCRSKDRKVLYTGAERDVRAECGLLLSPVSGDVHACPFGGSVGDGVGIGGESADKKDEENELDQEKRVEYAVLDELEDFTDNLELDEEGAGGFTAKAIVQRDRVDEEALNFPYEDDFDNDVDALLEEGLCAPKKRRTEEKYGGDSDHPSDGETSVQPMMTKIKTVLKSRGRPPTEPLPDGWIMTFHNSGVPVYLHRESRVVTWSRPYFLGTGSIRKHDPPLSSIPCLHYKKMKDNEEREQSSDLTPSGDVSPVKPLSRSAELEFPLDEPDSMGADPGPPDEKDPLGAEAAPGALGQVKAKVEVCKDESVDLEEFRSYLEKRFDFEQVTVKKFRTWAERRQFNREMKRKQAESERPILPANQKLITLSVQDAPTKKEFVINPNGKSEVCILHEYMQRVLKVRPVYNFFECENPSEPFGASVTIDGVTYGSGTASSKKLAKNKAARATLEILIPDFVKQTSEEKPKDSEELEYFNHISIEDSRVYELTSKAGLLSPYQILHECLKRNHGMGDTSIKFEVVPGKNQKSEYVMACGKHTVRGWCKNKRVGKQLASQKILQLLHPHVKNWGSLLRMYGRESSKMVKQETSDKSVIELQQYAKKNKPNLHILSKLQEEMKRLAEEREETRKKPKMSIVASAQPGGEPLCTVDV
Turning to B1, the “Number of positive AMLs” value is given as 3 and the rep. frequency entry is “[20.0%]”.

B2: CHTF18 (protein, UniProt Q8WVB6 1-975, looked up)
Chromosome transmission …: MEDYEQELCGVEDDFHNQFAAELEVLAELEGASTPSPSGVPLFTAGRPPRTFEEALARGDAASSPAPAASVGSSQGGARKRQVDADLQPAGSLPHAPRIKRPRLQVVKRLNFRSEEMEEPPPPDSSPTDITPPPSPEDLAELWGHGVSEAAADVGLTRASPAARNPVLRRPPILEDYVHVTSTEGVRAYLVLRADPMAPGVQGSLLHVPWRGGGQLDLLGVSLASLKKQVDGERRERLLQEAQKLSDTLHSLRSGEEEAAQPLGAPEEEPTDGQDASSHCLWVDEFAPRHYTELLSDDFTNRCLLKWLKLWDLVVFGHERPSRKPRPSVEPARVSKEATAPGKWKSHEQVLEEMLEAGLDPSQRPKQKVALLCGPPGLGKTTLAHVIARHAGYSVVEMNASDDRSPEVFRTRIEAATQMESVLGAGGKPNCLVIDEIDGAPVAAINVLLSILNRKGPQEVGPQGPAVPSGGGRRRRAEGGLLMRPIICICNDQFAPSLRQLKQQAFLLHFPPTLPSRLVQRLQEVSLRQGMRADPGVLAALCEKTDNDIRACINTLQFLYSRGQRELSVRDVQATRVGLKDQRRGLFSVWQEVFQLPRAQRRRVGQDPALPADTLLLGDGDAGSLTSASQRFYRVLHAAASAGEHEKVVQGLFDNFLRLRLRDSSLGAVCVALDWLAFDDLLAGAAHHSQSFQLLRYPPFLPVAFHVLFASSHTPRITFPSSQQEAQNRMSQMRNLIQTLVSGIAPATRSRATPQALLLDALCLLLDILAPKLRPVSTQLYSTREKQQLASLVGTMLAYSLTYRQERTPDGQYIYRLEPNVEELCRFPELPARKPLTYQTKQLIAREIEVEKMRRAEASARVENSPQVDGSPPGLEGLLGGIGEKGVHRPAPRNHEQRLEHIMRRAAREEQPEKDFFGRVVVRSTAVPSAGDTAPEQDSVERRMGTAVGRSEVWFRFNEGVSNAVRRSLYIRDLL
For B2, the “Number of positive AMLs” value is listed as 3 and the rep. frequency entry is “[20.0%]”.
